Assay results published in patent EP4831176A1, “BICYCLIC FUSED HETEROAROMATIC RING DERIVATIVE, AND PHARMACEUTICAL COMPOSITION AND USE THEREOF” (dated 2026).
pIC50: −log10 of the molar value. Structures were worked out from names or drawings and are uncertain.

Assays:
Pfeiffer cells = experiment: Proliferation inhibition of Pfeiffer tumor cells, Cell Titer-Glo; details: read-out: CTG IC50, 144 hours incubation
[1] = In vivo pharmacokinetic study in mice (LC/MS/MS of plasma); details: male ICR mice; for Drug elimination half-life T1/2 / Drug exposure AUC0-inf / Maximum drug concentration Cmax / Time to peak concentration Tmax: plasma, study IV 2 mg/kg and PO 10 mg/kg, route of this parameter not given; for Oral bioavailability F: IV 2 mg/kg, PO 10 mg/kg
Text: LC/MS/MS method was used to determine the drug concentrations in mouse plasma at different time points after intravenous injection and oral gavage administration of the compounds of the present application. The pharmacokinetic behavior of the compounds of the present application in mice was studied to evaluate their pharmacokinetic characteristics.
1. Experimental protocol: Test animals: Healthy adult male ICR mice, weighing 25-40 g, 6 mice. All mice had free access to food and water. Supplied by Beijing Vital River Laboratory Animal Technology Co., Ltd. Minimum of 3 days adaptation period, SPF area room, indoor temperature maintained at 20-26°C, indoor relative humidity maintained at 40-70%. Illuminated with fluorescent lamps, 12-hour light (08:00-20:00) and 12-hour dark, 2-5 mice per cage (same administration group). Unlimited access to feed (irradiated sterilized, Shaanxi Qinle Pharmaceutical Chemical Co., Ltd., China) and water (tap water purified by ultrapure water filtration system).
2. Animal experiment formulation: • 2.1. 10% DMSO / 40% PEG400 / 5% Tween 80 / 45% saline • 2.1.1 Vehicle formulation preparation: N/A • 2.1.2 Administration formulation preparation: Intravenous injection group: an appropriate amount of API powder was accurately weighed, added to 10% of the final volume of DMSO, and shaken and sonicated to ensure complete dissolution. After dissolution, 40% of the formulation volume of PEG400 and 5% of the formulation volume of Tween 80 were added, followed by vortexing or sonication. Finally, 45% of the formulation volume of saline was added to obtain a clear, transparent solution at a concentration of 0.5 mg/mL. • 2.2 10% HP-β-CD and 50 mM Citrate buffer in water (pH 4.0) • 2.2.1 Vehicle formulation preparation: • 50 mM Citrate buffer solution (pH 4.0): 1.92 g of anhydrous citric acid was weighed and added to 100 mL of purified water, stirred to dissolve, yielding a 100 mM citric acid solution. Separately, 2.94 g of sodium citrate was weighed and added to 100 mL of water, yielding a 100 mM sodium citrate solution. 33 mL of the 100 mM citric acid solution was taken, mixed with 17 mL of the 100 mM sodium citrate solution, mixed well, and diluted to 100 mL to obtain 50 mM citrate buffer at pH 4.0. • 10% HP-β-CD (Hydroxypropyl-β-cyclodextrin) and 50 mM Citrate buffer (pH 4.0) solution: 10 g of hydroxypropyl-β-cyclodextrin was accurately weighed and added to 100 mL of 50 mM Citrate buffer (pH 4.0) aqueous solution, and sonicated to ensure complete dissolution. • 2.2.2 Administration formulation preparation: Oral gavage group: an appropriate amount of API powder was accurately weighed, added to the final volume of 10% HP-β-CD and 50 mM Citrate in water (pH 4.0) solution, and shaken and sonicated to ensure complete dissolution. The mixture was then disrupted using a cell disruptor for 1 minute to obtain a clear, transparent or suspended solution at a concentration of 1 mg/mL. 3. Administration method: before administration, animals meeting the experimental requirements were selected, weighed, and marked. ICR mice were administered 2 mg/kg via tail vein injection and 10 mg/kg via oral gavage. 4. Sample Collection: before sampling, mice were restrained. Blood was collected from each dosed mouse via the submandibular vein at predetermined time points (IV administration: 0.083h, 0.25h, 0.5h, 1h, 2h, 4h, 7h, 24h, 30h, and 48h post-dose, totaling 10 time points; Oral gavage administration: 0.083h, 0.25h, 0.5h, 1h, 2h, 4h, 7h, 24h, 30h, and 48h post-dose, totaling 10 time points), approximately 80 µL of blood was collected each time. The blood was transferred to a 1.5 mL tube pre-filled with K2EDTA, and centrifuged (Eppendorf, Centrifuge 5804R) for 3 min (10000 rpm, 4°C) to separate plasma. The entire process was completed within 15 minutes after blood collection. All samples were stored in a -20°C freezer (Panasonic) until sample analysis. 5. […]

SMILES | pIC50 (Pfeiffer cells) | Drug elimination half-life T1/2 [1] | Drug exposure AUC0-inf [1] | Maximum drug concentration Cmax [1] | Time to peak concentration Tmax [1] | Oral bioavailability F [1]
Cn1nc(C2CCC(=O)NC2=O)c2ccc(N3CCC(CN4CCC(c5ccc(-c6cnc(NCc7c(F)ccc8c7CCO8)n7cnc(P(C)(C)=O)c67)cc5)CC4)CC3)cc21 (stereo not drawn) | 9.22 | 4.5 h | 44 ng·h/mL | 6 ng/mL | 2.3 h | 0.2%
Cn1nc(C2CCC(=O)NC2=O)c2ccc(N3CCN(C4CCN(Cc5ncc(-c6cnc(NCc7c(F)ccc8c7CCO8)n7cnc(Cl)c67)cn5)CC4(F)F)CC3)cc21 (stereo not drawn) | 9.10 | 4.8 h | 36662 ng·h/mL | 2543 ng/mL | 6.0 h | 65.4%
Cc1nc(-c2cnc(NCc3c(F)ccc4c3CCO4)n3cnc(Cl)c23)ccc1C1CCN(CC2CCN(c3ccc4c(C5CCC(=O)NC5=O)nn(C)c4c3)CC2)CC1 (stereo not drawn) | 9.70 | 11.7 h | 39355 ng·h/mL | 1667 ng/mL | 7.0 h | 63.9%
Cc1nc(CCC(=O)NCCOc2ccc(OCC(=O)N[C@H](C(=O)N3C[C@H](O)C[C@H]3C(=O)NCc3ccc(-c4scnc4C)cc3)C(C)(C)C)cc2)ccc1-c1cnc(NCc2c(F)ccc3c2CCO3)n2cnnc12 | 6.41 | 1.1 h | 40 ng·h/mL | 21 ng/mL | 0.4 h | 1.7%
Cn1c(=O)n(C2CCC(=O)NC2=O)c2ccc(N3CCC(CN4CCC(c5ccc(-c6cnc(NCc7c(F)ccc8c7CCO8)n7cnc(Cl)c67)cc5)CC4)CC3)cc21 (stereo not drawn) | 9.10 | 12.7 h | 19505 ng·h/mL | 785 ng/mL | 5.0 h | 55.8%
Cn1c(=O)n(C2CCC(=O)NC2=O)c2ccc(N3CCC(CN4CCC(c5ccc(-c6cnc(NCc7c(F)ccc8c7CCO8)n7cc(C#N)nc67)cc5)CC4)CC3)cc21 (stereo not drawn) | 9.70 | 5.4 h | 5058 ng·h/mL | 385 ng/mL | 3.3 h | 21.5%
Cc1nc(C2CCN(CC3CCN(c4ccc5c(C6CCC(=O)NC6=O)nn(C)c5c4)CC3)CC2)ccc1-c1cnc(NCc2c(F)ccc3c2CCO3)n2cnc(Cl)c12 (stereo not drawn) | 9.30 | 13.9 h | 14055 ng·h/mL | 613 ng/mL | 6.0 h | 43.3%
Cc1nc(C(=O)NC2CCN(CC3CCN(c4ccc5c(C6CCC(=O)NC6=O)nn(C)c5c4)CC3)CC2)ccc1-c1cnc(NCc2c(F)ccc3c2CCO3)n2cnc(Cl)c12 (stereo not drawn) | 8.89 | 7.0 h | 3963 ng·h/mL | 265 ng/mL | 7.0 h | 15.8%

Continued, values first:

pIC50 (Pfeiffer cells) | Drug elimination half-life T1/2 [1] | Drug exposure AUC0-inf [1] | Maximum drug concentration Cmax [1] | Time to peak concentration Tmax [1] | Oral bioavailability F [1] | SMILES
9.70 | 4.6 h | 13339 ng·h/mL | 917 ng/mL | 6.0 h | 39.2% | Cn1nc(C2CCC(=O)NC2=O)c2ccc(N3CCC(CN4CCC(n5cc(-c6cnc(NCc7c(F)ccc8c7CCO8)n7cnc(Cl)c67)nn5)CC4)CC3)cc21 (stereo not drawn)
10.00 | 6.6 h | 8204 ng·h/mL | 492 ng/mL | 5.0 h | 57.0% | Cc1nc(C2CCN(CC3CCN(c4ccc5c(C6CCC(=O)NC6=O)nn(C)c5c4)CC3)CC2)ccc1-c1cnc(NCc2c(F)ccc3c2CCO3)n2cnc(F)c12 (stereo not drawn)
> 10.00 | 3.8 h | 119 ng·h/mL | 23 ng/mL | 2.0 h | 1.4% | Cn1c(=O)n(C2CCC(=O)NC2=O)c2ccc(N3CCC(CN4CCC(c5ccc(-c6cnc(NCc7c(F)ccc8c7CCO8)n7cnc(S(C)(=O)=O)c67)cc5)CC4)CC3)cc21 (stereo not drawn)
> 10.52 | 5.8 h | 8401 ng·h/mL | 534 ng/mL | 6.0 h | 34.8% | Cn1nc(C2CCN(CC3CCN(c4cc5c(cc4F)c(C4CCC(=O)NC4=O)nn5C)CC3)CC2)cc1-c1cnc(NCc2c(F)ccc3c2CCO3)n2cnc(Cl)c12 (stereo not drawn)
> 10.52 | 6.6 h | 8307 ng·h/mL | 664 ng/mL | 3.5 h | 24.5% | Cn1nc(C2CCC(=O)NC2=O)c2cc(F)c(N3CCC(CN4CCC(c5ccc(-c6cnc(NCc7c(F)ccc8c7CCO8)n7cnc(Cl)c67)nn5)CC4)CC3)cc21 (stereo not drawn)
